Results taken from the supplement of paper PMC6078165.
Values are relative to the signal before dosing, not to a vehicle control; the signal also falls without drug.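 Labels refer to human fibroblasts, largely primary: uterine (C12385, HUF), lung (H6013), bone (Hs27A), adrenal (HADF), skin (WS1), plus mammary HMF and breast cancer-associated Hs343T. Cancer lines are basal-like or mesenchymal-like triple-negative breast cancer. The paper counts as hits responses shifting over 3x the replicate standard deviation. The tissue of the other fibroblasts is not given here.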

Tested on: MDAMB231
Experiment: relative JC-1 red fluorescence (viability) vs pre-drug, coculture with fibroblast (fraction); higher = more viable cancer cells
Description: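 JC-1 labelled TNBC cells cocultured 1:1 (1,500 cells each) with CellTrace Violet stained primary or stromal fibroblasts in 384-well plates in FluoroBrite medium, treated with one of 42 anticancer drugs at 0.1, 1, 10 or 100 uM. JC-1 red fluorescence (mitochondrial integrity in cancer cells only) was read by plate reader every 8 h for 72 h. Values are normalised to each well's pre-drug value. The stock of one drug was tenfold lower, so its dose labels may be too high.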

CC(C)C[C@H](NC(=O)[C@@H](COC(C)(C)C)NC(=O)[C@H](Cc1ccc(O)cc1)NC(=O)[C@H](CO)NC(=O)[C@H](Cc1c[nH]c2ccccc12)NC(=O)[C@H](Cc1cnc[nH]1)NC(=O)[C@@H]1CCC(=O)N1)C(=O)N[C@@H](CCCNC(=N)N)C(=O)N1CCC[C@H]1C(=O)NNC(N)=O [Goserelin]
relative JC-1 red fluorescence
Settings | 8 h | 16 h | 24 h | 32 h | 40 h | 48 h | 56 h | 64 h | 72 h
0.1 µM, coculture fibroblast: C12385 | 0.827 | 0.784 | 0.72 | 0.689 | 0.642 | 0.616 | 0.573 | 0.571 | 0.548
0.1 µM, coculture fibroblast: H6013 | 0.87379 | 0.813 | 0.7689 | 0.73 | 0.68 | 0.639 | 0.609 | 0.579 | 0.539
0.1 µM, coculture fibroblast: H6019 | 0.7604 | 0.7118 | 0.671 | 0.63 | 0.5837 | 0.5673 | 0.528 | 0.501 | 0.464
0.1 µM, coculture fibroblast: H6076 | 0.891 | 0.797 | 0.737 | 0.7 | 0.652 | 0.613 | 0.585 | 0.559 | 0.542
0.1 µM, coculture fibroblast: H6231 | 0.889 | 0.773 | 0.6926 | 0.63633 | 0.582 | 0.552 | 0.506 | 0.492 | 0.465
0.1 µM, coculture fibroblast: HADF | 0.8628 | 0.8128 | 0.7808 | 0.73929 | 0.7025 | 0.659 | 0.6433 | 0.624 | 0.576
0.1 µM, coculture fibroblast: HCFa | 0.893 | 0.838 | 0.782 | 0.741 | 0.687 | 0.63 | 0.607 | 0.565 | 0.527
0.1 µM, coculture fibroblast: HCPF | 0.88294 | 0.779 | 0.709 | 0.683 | 0.619 | 0.574 | 0.537 | 0.509 | 0.49
0.1 µM, coculture fibroblast: HHSteC | 0.89 | 0.823 | 0.752 | 0.687 | 0.636 | 0.604 | 0.557 | 0.535 | 0.499
0.1 µM, coculture fibroblast: HMF | 0.861 | 0.759 | 0.672 | 0.623 | 0.5652 | 0.5239 | 0.4722 | 0.4507 | 0.4274
0.1 µM, coculture fibroblast: HPFa | 0.916 | 0.845 | 0.796 | 0.736 | 0.711 | 0.67 | 0.612 | 0.579 | 0.519
0.1 µM, coculture fibroblast: HUF | 0.869 | 0.729 | 0.727 | 0.601 | 0.536 | 0.51 | 0.456 | 0.45 | 0.429
0.1 µM, coculture fibroblast: Hs5 | 0.877 | 0.784 | 0.705 | 0.645 | 0.595 | 0.535 | 0.4907 | 0.4593 | 0.425
0.1 µM, coculture fibroblast: Hs27A | 0.8786 | 0.8005 | 0.7739 | 0.747 | 0.697 | 0.629 | 0.633 | 0.612 | 0.561
0.1 µM, coculture fibroblast: Hs343T | 0.894 | 0.7674 | 0.699 | 0.65 | 0.587 | 0.539 | 0.48 | 0.449 | 0.42
0.1 µM, coculture fibroblast: WS1 | 0.7406 | 0.6737 | 0.579 | 0.518 | 0.455 | 0.422 | 0.369 | 0.358 | 0.33
1 µM, coculture fibroblast: C12385 | 0.759 | 0.721 | 0.662 | 0.611 | 0.544 | 0.513 | 0.471 | 0.465 | 0.448
1 µM, coculture fibroblast: H6013 | 0.895 | 0.8185 | 0.7757 | 0.754 | 0.708 | 0.689 | 0.671 | 0.645 | 0.6
1 µM, coculture fibroblast: H6019 | 0.757 | 0.671 | 0.647 | 0.597 | 0.549 | 0.537 | 0.481 | 0.4675 | 0.4248
1 µM, coculture fibroblast: H6076 | 0.861 | 0.759 | 0.733 | 0.721 | 0.677 | 0.65 | 0.629 | 0.625 | 0.61
1 µM, coculture fibroblast: H6231 | 0.8772 | 0.761 | 0.675 | 0.647 | 0.601 | 0.565 | 0.524 | 0.516 | 0.491
1 µM, coculture fibroblast: HADF | 0.869 | 0.8019 | 0.7393 | 0.714 | 0.674 | 0.635 | 0.616 | 0.601 | 0.557
1 µM, coculture fibroblast: HCFa | 0.9116 | 0.8401 | 0.8027 | 0.775 | 0.741 | 0.71 | 0.672 | 0.647 | 0.596
1 µM, coculture fibroblast: HCPF | 0.8491 | 0.746 | 0.666 | 0.666 | 0.606 | 0.56973 | 0.536 | 0.5078 | 0.4855
1 µM, coculture fibroblast: HHSteC | 0.94 | 0.861 | 0.828 | 0.797 | 0.752 | 0.718 | 0.67 | 0.649 | 0.602
1 µM, coculture fibroblast: HMF | 0.921 | 0.844 | 0.8 | 0.792 | 0.758 | 0.729 | 0.699 | 0.678 | 0.662
1 µM, coculture fibroblast: HPFa | 0.927 | 0.847 | 0.782 | 0.722 | 0.672 | 0.628 | 0.567 | 0.536 | 0.48
1 µM, coculture fibroblast: HUF | 0.8414 | 0.728 | 0.731 | 0.594 | 0.54 | 0.528 | 0.4788 | 0.4785 | 0.457
1 µM, coculture fibroblast: Hs5 | 0.8726 | 0.808 | 0.749 | 0.707 | 0.66 | 0.603 | 0.5628 | 0.533 | 0.508
1 µM, coculture fibroblast: Hs27A | 0.8767 | 0.8159 | 0.767 | 0.739 | 0.697 | 0.653 | 0.643 | 0.623 | 0.5631
1 µM, coculture fibroblast: Hs343T | 0.8677 | 0.773 | 0.687 | 0.659 | 0.5901 | 0.5357 | 0.48095 | 0.459 | 0.4271
1 µM, coculture fibroblast: WS1 | 0.75593 | 0.6823 | 0.6351 | 0.5489 | 0.4959 | 0.474 | 0.4274 | 0.418 | 0.3925
